No constants are given. Whether binding was seen depends on the method and setting. A result given as binding can be weak or reduced; the word gives no strength.
Columns and labels:
[1] = target: GST-ERas G-domain, human (human); assay: pull-down; GST-fusion proteins immobilized on GSH agarose beads, mixed with purified ARG1, 1 h at 4 °C; both purified
[2] = target: GST-ERas G-domain, rat (rat); assay: as above

B1: purified arginase 1 (ARG1; aa 1-322) (enzyme, UniProt P05089 1-322)
chain: MSAKSRTIGIIGAPFSKGQPRGGVEEGPTVLRKAGLLEKLKEQECDVKDYGDLPFADIPNDSPFQIVKNPRSVGKASEQLAGKVAEVKKNGRISLVLGGDHSLAIGSISGHARVHPDLGVIWVDAHTDINTPLTTTSGNLHGQPVSFLLKELKGKIPDVPGFSWVTPCISAKDIVYIGLRDVDPGEHYILKTLGIKYFSMTEVDRLGIGKVMEETLSYLLGRKKRPIHLSFDVDGLDPSFTPATGTPVVGGLTYREGLYITEEIYKTGLLSGLDIMEVNPSLGKTPEEVTRTVNTAVAITLACFGLAREGNHKPIDYLNPPK
[1]
  binding: binds
[2]
  binding: binds
